These are yes or no findings as the source states them, for the method shown. Binding seen in cells or lysates may run through a third protein. A yes stands for co-enrichment or nearness to the bait. Other partners may have been found.
Target: SME1 fused to a GS^rhino TAP tag (Arabidopsis thaliana)
Assay: affinity purification with mass spectrometry

Binder | binding
AT4G18465, DEAH box RNA helicase with best homology to human DHX35 (protein, UniProt F4JRJ6 1-695) MAFWKPGTEKPRFEEDGEGGIVFMSNNLASSSSSSYGYANIEKQRQRLPVYKYRTEILYLVENHATTIIVGETGSGKTTQIPQYLKEAGWAEGGRVIACTQPRRLAVQAVSARVAEEMGVNLGEEVGYTIRFEDHTTSGVTSVKFLTDGVLIREMMEDPLLTKYSVIMIDEAHERSISTDILLGLLKKIQRRRPELRLIISSATIEAKTMSNFFNSSKKRHAPEGSTPGPKLEPAILSVEGRGFSVKIHYVEEPVSDYIRSVVSTILLINEREPPGDVLVFLTGQEDIETAIKLLEEEAHSNQKNSSGLLPLPLYSGLSRSEQELIFTPTPRGKRKVILSTNIAETSLTLEGVVYVIDSGFSKQKFYNPISDIESLVVAPISKASARQRSGRAGRVRPGKCYRLYTEDYFLNQMPGEGIPEMQRSNLVSTVIQLKALGIDNILGFDWPAPPSSEAMIRALEVLYSLQILDDDAKLTSPTGFQVAELPLDPMISKMILASSELGCSHEIITIAAVLSVQSVWIIARGVQKEQDEAKLRFAAAEGDHVTFLNVYKGFLESKKPTQWCYKNFLNYQSMKKVVEIRDQLKRIARRLGITLKSCDGDMEAVRKAVTAGFFANACRLEPHSNGVYKTIRGSEEVYIHPSSVLFRVNPKWVVYQSIVSTERQYMRNVVTINPSWLTEVAPHFYQNRQNAMSF | binds
cystatin protease inhibitor CYS1 (protein, UniProt Q945Q1 1-101) MADQQAGTIVGGVRDIDANANDLQVESLARFAVDEHNKNENLTLEYKRLLGAKTQVVAGTMHHLTVEVADGETNKVYEAKVLEKAWENLKQLESFNHLHDV | binds
cystatin protease inhibitor CYS4 (protein, UniProt Q84WT8 23-117) LGGGGGLGSRKPIKNVSDPDVVAVAKYAIEEHNKESKEKLVFVKVVEGTTQVVSGTKYDLKIAAKDGGGKIKNYEAVVVEKLWLHSKSLESFKAL | binds
cystatin protease inhibitor CYS6 (protein, UniProt Q8H0X6 25-234) SDLGFCNEEMALVGGVGDVPANQNSGEVESLARFAVDEHNKKENALLEFARVVKAKEQVVAGTLHHLTLEILEAGQKKLYEAKVWVKPWLNFKELQEFKPASDAPAITSSDLGCKQGEHESGWREVPGDDPEVKHVAEQAVKTIQQRSNSLFPYELLEVVHAKAEVTGEAAKYNMLLKLKRGEKEEKFKVEVHKNHEGALHLNHAEQHHD | binds
ICLN (protein, UniProt Q9LVA7 1-229) MVAGLRDFTLRTEDGSGKPVLDESNGEELMHVQTSVAVALGNRPIESPGTLYITSRKLIWLSDVDMAKGYAVDFLSISLHAVSRDPEAYSSPCIYTQIEVEEDEDDESDSESTEVLDLSKIREMRLVPSDSTQLETLFDVFCECAELNPEPVQEEEEESGHNWVFSADQMDVRGGDDDAEWQISQSPTSVIGHSNGDEGLNQPMLELQINDQRFEDAEEMVHESETKDH | binds

Reference: paper doi:10.1101/2022.04.12.488072
